Measured values taken from patent US9314029B2, “Control and repellency of mosquitoes” (BEDOUKIAN RESEARCH, INC., priority 2012, dated 2016).

Experiment: Odor intensity, modified static-scale ASTM E544-10 method
Settings: for Test material Intensity score: Compound at 15%, scale 0 (No odor) to 6 (Extremely strong), reference 1-butanol

Row | SMILES | Test material Intensity score | relative odor intensity (in words) (in comparison with methyl dihydrojasmonate)
1 | CCCCCC1C(=O)CCC1CC(=O)OCCC (stereo not shown) [Propyl Dihydrojasmonate] | 1 | almost no odor
2 | CCCCCC1C(=O)CCC1CC(=O)OC (stereo not shown) [Methyl Dihydrojasmonate, reference compound] | 5 | –
3 | CCN(CC)C(=O)c1cccc(C)c1 [DEET ®, N,N-Diethyl-m-toluamide, reference compound] | 1.5 | –
